Source: article PMC7062894
Results are given in words; binding and its absence hold for the method and conditions named. In cells and extracts the contact can be indirect. Some results given as binding are weak or reduced against the parent protein; the word gives no strength. Tags and fused reporters may be left off the sequences shown.

By UniProt entry, the sequences of proteins in these tests, tags left out.
UniProt Q9NT62: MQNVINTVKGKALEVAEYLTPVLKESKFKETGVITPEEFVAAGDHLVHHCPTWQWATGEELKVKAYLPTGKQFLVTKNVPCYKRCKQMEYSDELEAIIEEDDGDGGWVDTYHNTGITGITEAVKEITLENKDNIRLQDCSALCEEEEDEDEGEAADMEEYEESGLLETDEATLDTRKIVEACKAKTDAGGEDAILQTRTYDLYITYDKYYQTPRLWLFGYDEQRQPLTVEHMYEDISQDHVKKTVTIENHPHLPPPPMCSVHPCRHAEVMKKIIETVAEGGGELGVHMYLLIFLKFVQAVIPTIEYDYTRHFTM

Columns and labels:
[1] = molecular target: T1, TNFAIP8-Myc-DDK-tagged protein (human TNFAIP8, transcript variant 1) expressed in HepG2 cells (human) (UniProt O95379); assay: co-IP; extracts (1 mg, RIPA buffer) of HepG2 cells transfected with EV or TNFAIP8-Myc plasmid; forward and reverse IP (anti-Myc or ATG7 antibody, 4 °C overnight, protein AG-agarose beads), Western blot
T1 sequence: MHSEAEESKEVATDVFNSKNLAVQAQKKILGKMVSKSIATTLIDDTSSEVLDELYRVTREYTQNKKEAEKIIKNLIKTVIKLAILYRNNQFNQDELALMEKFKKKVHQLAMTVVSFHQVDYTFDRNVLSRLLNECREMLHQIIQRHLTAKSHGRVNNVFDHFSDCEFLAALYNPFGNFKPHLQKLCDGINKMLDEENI

[2] = molecular target: T2, Purified human TNFAIP8-His-tagged protein (Sino Biological) (human) (UniProt O95379); assay: pull-down; HepG2 cell lysates (1 mg) incubated with pure TNFAIP8 protein (2 µg) for 3 h; TNFAIP8 pulled down with TNFAIP8 antibody or control IgG; SDS-PAGE and Western blot; only the target purified
T2 sequence: T1 sequence

Substance: Autophagy-related protein 3 (ATG3), endogenous in HepG2 cells (from UniProt Q9NT62 1-314)
- binding [1]: binds
- binding [2]: binds
